Results are given in words; binding and its absence hold for the method and conditions named. In cells and extracts the contact can be indirect. Binding can be weak; no strength is given. Sequences can lack the tags named with a protein.
How the values were obtained:
[1] = target: T1, Flag-tagged zebrafish hif-1αa (zebrafish) (UniProt F1QNB9); experiment: co-IP; HEK293T cells co-transfected with Myc-sirt7 and Flag-hif-α (or Flag empty vector), lysed in RIPA buffer after 24 h; anti-Flag antibody-conjugated agarose beads precipitate, Western blot detects; also done with cells cultured under normoxia or hypoxia for 4 h (interaction enhanced under hypoxia)
T1 sequence: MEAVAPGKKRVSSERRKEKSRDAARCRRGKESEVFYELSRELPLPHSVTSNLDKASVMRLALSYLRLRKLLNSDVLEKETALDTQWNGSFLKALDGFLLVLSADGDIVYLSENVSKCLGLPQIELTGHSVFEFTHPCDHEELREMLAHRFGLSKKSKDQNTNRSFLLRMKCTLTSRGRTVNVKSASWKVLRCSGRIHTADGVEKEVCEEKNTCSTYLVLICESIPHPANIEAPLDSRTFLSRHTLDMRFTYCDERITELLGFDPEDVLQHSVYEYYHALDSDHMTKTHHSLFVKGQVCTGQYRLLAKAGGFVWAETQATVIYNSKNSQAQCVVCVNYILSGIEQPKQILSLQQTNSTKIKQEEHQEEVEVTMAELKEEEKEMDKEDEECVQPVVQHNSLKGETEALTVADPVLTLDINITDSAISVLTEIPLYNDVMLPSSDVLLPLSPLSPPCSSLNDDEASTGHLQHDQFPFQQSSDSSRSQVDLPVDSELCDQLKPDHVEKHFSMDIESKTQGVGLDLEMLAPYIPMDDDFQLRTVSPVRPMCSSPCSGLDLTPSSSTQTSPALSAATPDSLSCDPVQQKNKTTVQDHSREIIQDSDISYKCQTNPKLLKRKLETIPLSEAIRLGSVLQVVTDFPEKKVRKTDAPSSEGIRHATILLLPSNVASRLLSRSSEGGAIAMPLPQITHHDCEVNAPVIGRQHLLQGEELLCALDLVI

[2] = target: T2, Flag-tagged zebrafish hif-1αb (zebrafish) (UniProt Q6EHI4); experiment: as above
T2 sequence: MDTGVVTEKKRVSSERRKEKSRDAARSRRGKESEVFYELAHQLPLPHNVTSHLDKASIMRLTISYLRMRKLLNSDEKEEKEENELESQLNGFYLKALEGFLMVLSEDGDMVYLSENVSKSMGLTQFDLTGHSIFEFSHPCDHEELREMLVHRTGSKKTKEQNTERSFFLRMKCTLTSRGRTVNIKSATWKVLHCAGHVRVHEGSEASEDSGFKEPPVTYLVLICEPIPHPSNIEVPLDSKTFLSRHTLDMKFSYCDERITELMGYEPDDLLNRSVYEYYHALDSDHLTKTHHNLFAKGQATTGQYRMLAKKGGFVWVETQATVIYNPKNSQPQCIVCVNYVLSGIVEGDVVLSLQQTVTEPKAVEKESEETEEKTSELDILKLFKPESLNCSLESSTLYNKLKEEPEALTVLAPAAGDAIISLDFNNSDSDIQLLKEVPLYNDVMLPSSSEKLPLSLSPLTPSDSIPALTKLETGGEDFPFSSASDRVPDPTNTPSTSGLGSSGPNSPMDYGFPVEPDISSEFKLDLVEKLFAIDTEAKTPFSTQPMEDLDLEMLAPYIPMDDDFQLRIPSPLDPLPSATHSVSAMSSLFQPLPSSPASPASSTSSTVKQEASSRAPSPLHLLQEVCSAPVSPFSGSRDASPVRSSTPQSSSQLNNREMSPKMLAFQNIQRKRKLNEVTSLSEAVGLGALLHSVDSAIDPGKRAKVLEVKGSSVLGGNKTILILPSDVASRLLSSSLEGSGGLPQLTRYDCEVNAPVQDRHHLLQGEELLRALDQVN

- binding [1]: binds
- binding [2]: binds
Substance: Myc-tagged zebrafish sirt7 (enzyme)

Reference: paper PMC10448219
